# Data from patent publication US20210122763A1, “OGA INHIBITOR COMPOUNDS” (Janssen Pharmaceutica NV, priority 2018, published 2021).
# The chains behind the UniProt entries cited, without tags or fusion partners.
# UniProt O60502, whole entry: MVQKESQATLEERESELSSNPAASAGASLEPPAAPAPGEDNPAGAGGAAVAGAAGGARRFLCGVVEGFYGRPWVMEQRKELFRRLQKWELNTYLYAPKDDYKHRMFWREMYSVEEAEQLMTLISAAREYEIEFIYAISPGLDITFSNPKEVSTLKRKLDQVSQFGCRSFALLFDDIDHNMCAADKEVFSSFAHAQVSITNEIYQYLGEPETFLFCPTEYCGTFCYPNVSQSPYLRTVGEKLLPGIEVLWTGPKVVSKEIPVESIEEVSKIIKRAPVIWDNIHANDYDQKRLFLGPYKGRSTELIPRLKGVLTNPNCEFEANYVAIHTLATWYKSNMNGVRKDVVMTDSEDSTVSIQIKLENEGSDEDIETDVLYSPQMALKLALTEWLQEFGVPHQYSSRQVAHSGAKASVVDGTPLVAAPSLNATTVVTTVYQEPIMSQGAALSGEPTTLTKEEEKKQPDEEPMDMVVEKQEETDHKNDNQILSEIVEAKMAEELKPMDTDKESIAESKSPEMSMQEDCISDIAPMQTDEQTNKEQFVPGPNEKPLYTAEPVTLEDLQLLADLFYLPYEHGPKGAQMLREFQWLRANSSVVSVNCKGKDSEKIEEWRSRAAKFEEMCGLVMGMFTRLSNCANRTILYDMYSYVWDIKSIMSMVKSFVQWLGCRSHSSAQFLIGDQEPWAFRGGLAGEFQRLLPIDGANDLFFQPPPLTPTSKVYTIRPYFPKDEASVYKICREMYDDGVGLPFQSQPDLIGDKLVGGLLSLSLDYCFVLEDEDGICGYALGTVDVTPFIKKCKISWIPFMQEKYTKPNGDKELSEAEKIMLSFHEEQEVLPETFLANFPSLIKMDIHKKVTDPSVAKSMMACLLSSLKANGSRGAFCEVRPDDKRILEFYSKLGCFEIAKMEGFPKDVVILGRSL
# Tests used:
# OGA = OGA (Homo sapiens, UniProt O60502); test: OGA cellular assay (ICC detection of O-GlcNAcylated proteins in HEK293 cells inducible for P301L mutant human Tau); conditions: 6 hours incubation; for Cellular Emax (%): maximum = Thiamet G 200 uM
# Protocol: HEK293 cells inducible for P301L mutant human Tau (isoform 2N4R) were established at Janssen. Thiamet-G was used for both plate validation (high control) and as reference compound (reference EC50 assay validation). OGA inhibition is evaluated through the immunocytochemical (ICC) detection of O-GlcNAcylated proteins by the use of a monoclonal antibody (CTD110.6; Cell Signaling, #9875) detecting 0-GlcNAcylated residues as previously described (Dorfmueller et al. 2010 Chemistry & biology, 17:1250). Inhibition of OGA will result in an increase of 0-GlcNAcylated protein levels resulting in an increased signal in the experiment. Cell nuclei are stained with Hoechst to give a cell culture quality control and a rough estimate of immediate compounds toxicity, if any. ICC pictures are imaged with a Perkin Elmer Opera Phenix plate microscope and quantified with the provided software Perkin Elmer Harmony 4.1.
# Cells were propagated in DMEM high Glucose (Sigma, #D5796) following standard procedures. 2 days before the cell assay cells are split, counted and seeded in Poly-D-Lysine (PDL) coated 96-wells (Greiner, #655946) plate at a cell density of 12,000 cells per cm^2 (4,000 cells per well) in 100p of Assay Medium (Low Glucose medium is used to reduce basal levels of GlcNAcylation) (Park et al. 2014 The Journal of biological chemistry 289:13519). At the day of compound test medium from assay plates was removed and replenished with 90 μl of fresh Assay Medium. 10 μl of compounds at a 10 fold final concentration were added to the wells. Plates were centrifuged shortly before incubation in the cell incubator for 6 hours. DMSO concentration was set to 0.2%. Medium is discarded by applying vacuum. For staining of cells medium was removed and cells washed once with 100 μl D-PBS (Sigma, #D8537). From next step onwards unless other stated assay volume was always 50p and incubation was performed without agitation and at room temperature. Cells were fixed in 50 μl of a 4% paraformaldehyde (PFA, Alpha aesar, #043368) PBS solution for 15 minutes at room temperature. […] Before analysis samples were washed 2 times manually for 5 minutes in ICC base buffer.
# Imaging is performed using Perkin Elmer Phenix Opera using a water 20× objective and recording 9 fields per well. Intensity readout at 488 nm is used as a measure of O-GlcNAcylation level of total proteins in wells. To assess potential toxicity of compounds nuclei were counted using the Hoechst staining. IC50-values are calculated using parametric non-linear regression model fitting. As a maximum inhibition Thiamet G at a 200 uM concentration is present on each plate. In addition, a concentration response of Thiamet G is calculated on each plate.
# [1] = target: recombinant human Meningioma Expressed Antigen 5 (MGEA5), also referred to as O-GlcNAcase (OGA) (Homo sapiens, UniProt O60502); test: OGA biochemical assay (inhibition of FM-GlcNAc hydrolysis, fluorescence)
# Description: The assay is based on the inhibition of the hydrolysis of fluorescein mono-B-D-N-Acetyl-Glucosamine (FM-GcNAc) (Mariappa et al. 2015, Biochem J470:255) by the recombinant human Meningioma Expressed Antigen 5 (MGEA5), also referred to as O-GlcNAcase (OGA). The hydrolysis FM-GlcNAc (Marker Gene technologies, cat #M1485) results in the formation of B-D-N-glucosamineacetate and fluorescein. The fluorescence of the latter can be measured at excitation wavelength 485 nm and emission wavelength 538 nm. An increase in enzyme activity results in anincrease in fluorescence signal. Full length OGA enzyme was purchased at OriGene (cat #TP322411). The enzyme was stored in 25 mM Tris.HCl, pH 7.3, 100 mM glycine, 10% glycerol at −20° C. Thiamet G and GlcNAcStatin were tested as reference compounds (Yuzwa et al. 2008 Nature Chemical Biology 4:483; Yuzwa et al. 2012 Nature Chemical Biology 8:393). The assay was performed in 200 mM Citrate/phosphate buffer supplemented with 0.005% Tween-20. 35.6 g Na2HPO4 2H2O (Sigma, #C0759) were dissolved in 1 L water to obtain a 200 mM solution. 19.2 g citric acid (Merck, #1.06580) was dissolved in 1 L water to obtain a 100 mM solution. pH of the sodiumphosphate solution was adjusted with the citric acid solution to 7.2. The buffer to stop the reaction consists of a 500 mM Carbonate buffer, pH 11.0. 734 mg FM-GlcNAc were dissolved in 5.48 mL DMSO to obtain a 250 mM solution and was stored at −20° C. OGA was used at a 2 nM concentration and FM-GcNAc at a 100 uM final concentration. Dilutions were prepared in assay buffer.
# 50 nl of a compound dissolved in DMSO was dispensed on Black Proxiplate™ 384 Plus Assay plates (Perkin Elmer, #6008269) and 3 μl fl-OGA enzyme mix added subsequently. Plates were pre-incubated for 60 min at room temperature and then 2 μl FM-GlcNAc substrate mix added.
# Plates were briefly centrifuged for 1 min at 1000 rpm and incubate at room temperature for 6 h. To stop the reaction 5 μl STOP buffer were added and plates centrifuge again 1 min at 1000 rpm. Fluorescence was quantified in the Thermo Scientific Fluoroskan Ascent or the PerkinElmer EnVision with excitation wavelength 485 nm and emission wavelength 538 nm.
# For analysis a best-fit curve is fitted by a minimum sum of squares method. From this an IC50 value and Hill coefficient was obtained. High control (no inhibitor) and low control (saturating concentrations of standard inhibitor) were used to define the minimum and maximum values.
SMILES,Cellular Emax (%) (OGA; tested form: 2HCl),Cellular hOGA; pEC50 (OGA; tested form: 2HCl),Enzymatic Emax (%) ([1]; tested form: 2HCl),Enzymatic hOGA; pIC50 ([1]; tested form: 2HCl),Cellular hOGA; pEC50 (OGA),Cellular Emax (%) (OGA),Enzymatic Emax (%) [1],Enzymatic hOGA; pIC50 [1]
Cc1cc(OC2CCN(C(C)c3ccc4c(n3)OCCC4)CC2)cc(C)n1 (stereo not shown),74%,6.4,98%,6.5,,,,
Cc1cc(OC2CCN(C(C)c3ccc4sc(C)nc4n3)CC2)nc(C)n1 (stereo not shown),,,,,<6,37%,100%,7.0
Cc1nc(OC2CCN(C(C)c3ccc4c(n3)OCCO4)CC2)ccc1C#N (stereo not shown),,,,,<6,47%,102%,7.4
Cc1cc(OC2CCN(C(C)c3nc4c(cc3F)CCCO4)CC2)cc(C)n1 (stereo not shown),89%,6.9,97%,7.4,,,,

# Where two headings read alike, the source gives them in different places. Structures were worked out from names or drawings and are uncertain.
